Laboratory results reported in article PMC5606997.
Results are given in words; binding and its absence hold for the method and conditions named. Binding seen in cells or lysates may run through a third protein. Here binding means that the protein was enriched with, or labelled near, the bait; the list need not be complete. No binding means not detected with the bait. Tags and fused reporters may be left off the sequences shown.

By UniProt entry, the sequences of proteins in these tests, tags left out.
UniProt P11940: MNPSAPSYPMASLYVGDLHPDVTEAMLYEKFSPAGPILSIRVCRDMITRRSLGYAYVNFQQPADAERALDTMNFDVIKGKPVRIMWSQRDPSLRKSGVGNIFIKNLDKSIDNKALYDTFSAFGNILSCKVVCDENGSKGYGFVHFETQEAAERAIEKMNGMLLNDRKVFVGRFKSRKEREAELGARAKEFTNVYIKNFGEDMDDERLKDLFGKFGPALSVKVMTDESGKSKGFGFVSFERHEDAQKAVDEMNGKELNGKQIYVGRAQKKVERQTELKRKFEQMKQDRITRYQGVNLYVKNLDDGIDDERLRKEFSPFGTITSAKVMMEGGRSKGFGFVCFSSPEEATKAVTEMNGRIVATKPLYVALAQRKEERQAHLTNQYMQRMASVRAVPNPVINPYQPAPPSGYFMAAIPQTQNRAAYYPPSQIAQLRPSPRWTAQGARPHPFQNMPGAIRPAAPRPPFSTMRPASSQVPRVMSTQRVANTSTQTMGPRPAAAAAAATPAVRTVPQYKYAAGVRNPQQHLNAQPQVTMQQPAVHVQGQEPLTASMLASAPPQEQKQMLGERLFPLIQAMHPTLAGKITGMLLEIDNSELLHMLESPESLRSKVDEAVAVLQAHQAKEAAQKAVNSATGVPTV

T1: FAM46C^WT-GFP (human) (UniProt Q5VWP2)
T1 sequence: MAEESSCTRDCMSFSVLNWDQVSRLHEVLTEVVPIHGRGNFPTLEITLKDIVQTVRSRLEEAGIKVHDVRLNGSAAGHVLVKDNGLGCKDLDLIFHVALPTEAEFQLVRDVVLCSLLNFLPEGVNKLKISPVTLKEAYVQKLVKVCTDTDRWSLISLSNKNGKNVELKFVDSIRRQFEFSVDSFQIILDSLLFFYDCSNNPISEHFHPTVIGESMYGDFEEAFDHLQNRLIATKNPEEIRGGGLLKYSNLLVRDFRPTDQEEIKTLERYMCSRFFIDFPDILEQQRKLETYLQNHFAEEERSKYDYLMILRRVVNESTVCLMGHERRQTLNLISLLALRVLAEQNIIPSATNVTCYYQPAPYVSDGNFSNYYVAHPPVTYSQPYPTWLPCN

B1: FAM46B (protein, UniProt Q96A09 1-425)
chain: MMPSESGAERRDRAAAQVGTAAATAVATAAPAGGGPDPEALSAFPGRHLSGLSWPQVKRLDALLSEPIPIHGRGNFPTLSVQPRQIVQVVRSTLEEQGLHVHSVRLHGSAASHVLHPESGLGYKDLDLVFRVDLRSEASFQLTKAVVLACLLDFLPAGVSRAKITPLTLKEAYVQKLVKVCTDSDRWSLISLSNKSGKNVELKFVDSVRRQFEFSIDSFQIILDSLLLFGQCSSTPMSEAFHPTVTGESLYGDFTEALEHLRHRVIATRSPEEIRGGGLLKYCHLLVRGFRPRPSTDVRALQRYMCSRFFIDFPDLVEQRRTLERYLEAHFGGADAARRYACLVTLHRVVNESTVCLMNHERRQTLDLIAALALQALAEQGPAATAALAWRPPGTDGVVPATVNYYVTPVQPLLAHAYPTWLPCN

Molecular target: T1, FAM46C^WT-GFP (human)
Experiment: affinity purification with mass spectrometry; FAM46C^WT-GFP from HEK293 cells captured on anti-GFP resin; LB buffer (20 mM Tris, 150 mM NaCl, 0.5% Triton-X100), TEV cleavage, LC-MS with label-free quantification

Molecule | binding
cytoplasmic poly(A)-binding protein PABPC1 (from UniProt P11940 1-636) | binds
B1 | no binding
